Results on one compound are retold here after paper PMC10058905, “Bioassay-Guided Alkaloids Isolation from Camellia sinensis and Colchicum luteum: In Silico and In Vitro Evaluations for Protease Inhibition” (Molecules, 2023).

In this assay the target is T1, Trypsin from bovine pancreas (Bos taurus, UniProt P00760).
T1 construct: gene PRSS1
T1 sequence (P00760 24-246): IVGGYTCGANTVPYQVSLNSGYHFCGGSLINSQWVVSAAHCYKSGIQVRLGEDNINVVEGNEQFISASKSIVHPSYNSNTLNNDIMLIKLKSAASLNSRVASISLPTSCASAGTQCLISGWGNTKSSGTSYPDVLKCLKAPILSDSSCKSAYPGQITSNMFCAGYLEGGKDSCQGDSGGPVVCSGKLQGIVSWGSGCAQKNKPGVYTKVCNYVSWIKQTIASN
Description: biochemical.

The structures appear in SMILES notation.

The compound `COc1cc2c(c(OC)c1OC)-c1ccc(OC)c(=O)cc1[C@@H](NC(C)=O)CC2` [compound 1, colchicine] gave a Ki of 690 ± 90 µM.
